Laboratory results as given in patent US20170189529A1.

Tests used:
Assay in all cases: recombinant HA ELISA
[1] = target: recombinant HA of influenza B virus B/Wisconsin/10 (Yamagata clade) (influenza B virus B/Wisconsin/10 (Yamagata clade))
[2] = target: hemagglutinin (HA) of influenza B virus B/Malaysia (Victoria lineage) (influenza B virus B/Malaysia/04 (Victoria clade))
[3] = target: hemagglutinin (HA) of influenza B virus B/Florida (Yamagata lineage) (influenza B virus B/Florida/06 (Yamagata clade))
[4] = target: recombinant HA of influenza B virus B/Mass/12 (Yamagata clade) (influenza B virus B/Mass/12 (Yamagata clade))
[5] = target: recombinant HA of influenza B virus B/Brisbane/08 (Victoria clade) (influenza B virus B/Brisbane/08 (Victoria clade))

Measured: binding

B1: TRL856 (antibody, V domains shown)
VH: QVQLVESGGGLVQPGGSLRLSCAASGFTFSDYWMVWVRQAPGKGLVWVSRISSDGSTTSYADSVKGPFTISRDNAKNTLYLQMNSLRAEDTAVYYCARVATPYYYESGFDYWGQGALVTVSS
VL: DIVLTQSPSVSVAPGQTARITCGGNDIGSKSVHWYQQKPGQAPVLVVFDDRDRPSGIPERFSGSNSGNTATLTISRVEAGDEADYYCQVWDITSDLVVFGGGTKLTVVG
binds: all assays above

B2: TRL846 (antibody, V domains shown)
VH: QVQLVESGGGLVQPGGSLRLSCTVSGFTFNSYAMNWVRQAPGKGLEWVSGIRGSGENTYYAETVKGRFTISRDNSKNTLYLEMNSLRAEDTAVYYCARKWGRMTVFGVATDQLYYFDYWGQGTLVTVSS
VL: DITLTQSPATLSVSPGERATLSCRASQSVSSNLAWYQQKPGQAPRLLIYGASNRATDIPARFSGSGSGTEFTLTISSLQSEDFAVYYCQQFNDWPFLTFGGGTKVEIKR
binds: all assays above

B3: TRL841 (antibody, V domains shown)
VH: QVQLVESGGGVVQPGRSLRLSCAASGFTFSSYGIYWVRQAPGKGLEWVAFISYDEINKFYADSVKGRFTISRDNSKNTVFLQMNSLRDEDTAVYYCAKPLRGSYRYFDLWGRGTVVTVSS
VL: DIVMTQPPATLSVSPGERATLSCGASQGLGSNLAWYQQKPGQAPRLLIYAASTRATGITARFSGSGSGTEFTLTINSLQSEDFALYYCQQYTYWPLTFGGGTKVEIKR
binds: all assays above

B4: TRL832 (antibody, V domains shown)
VH: QVQLVESGPGLMKPSETLSLTCTVSGGSVSNYYWSWIRQPPGKGLEWIGYVFYSGSSNYNPSLNNPSLKSRVTISIDTSNNQFSLKLSSVTAADTAVYYCARGRVNSGYDWGPNFDSWGQGALVTVSS
VL: DIVLTQAPSVSVSPGQTASITCSGDRLGEKFASWYQQKPGQSPVLVIYEDSKRPSGIPDRFSGSNSGNTATLTISGTQIMDEGDFFCQAWDSSTVVFGGGTKLTVLG
binds: all assays above

B5: TRL813 (antibody, V domains shown)
VH: QVQLVESGGGLVQPGGSLRLSCAASGFIFGDFAIHWVRQASGKGLEWVARIRSGLNRFETAYAASVEGRLTISRDDSKSMAYLQMNNVKAEDTAVYLCTYLVGAVGFQHWGQGTLVTVSS
VL: DIVMTQSPSTLSASVGDRVTITCRASQTIYRWLAWYQQKPGKAPKVLIYKASTLESGVPSRFSGSGSGTEFTLAISSLQPDDFATYYCQQYNSFPYRFGQGTKVEIKR
binds: all assays above

No constants are given. Whether binding was seen depends on the method and setting. Binding can be weak; no strength is given.
